Results taken from publication PMC10761396, “Evaluation of new alternative methods for the identification of estrogenic, androgenic and steroidogenic effects: a comparative in vitro/in silico study” (Archives of Toxicology, 2023).

System: human (non-selective) ER
Assay: ER radioligand ([3H]estradiol) receptor-binding assay
Details: single-dose screening, 10 µM

## CC/C(=C(\c1ccccc1)c1ccc(OCCN(C)C)cc1)c1ccccc1 [Tamoxifen, reference compound]
  inhibition of control specific binding to the ER: more than 50%
